No constants are given. Whether binding was seen depends on the method and setting. In cells and extracts the contact can be indirect. Where a sequence is shown, tags or fusion partners need not be part of it.

In this assay the target is YN alone (N-terminal part of the yellow fluorescent protein). In words: split reporter; BiFC with YN and YC fusions transiently coexpressed in N. benthamiana leaf epidermis; 25 °C for 24 h; confocal microscopy of YFP.

B1: YC-RBR1 (RBR1 fused to the C-terminal part of YFP) (protein, UniProt Q9LKZ3 1-1013)
chain: MEEVQPPVTPPIEPNGKRSEASLLDICEKVLSLDGSTCDEALKLFTETKRILSASMSNIGSGTREEVERFWFAFILYSVKRLSVRKEADGLSVSGDNEFNLCQILRALKLNIVDFFKELPQFVVKAGSVLGELYGADWENRLQAKEVQANFVHLSLLSKYYKRGFREFFLTYDANAEKNSANSSTYLLDSYRFGWLLFLALRNHAFSRFKDLVTCSNGVVSILAILIIHVPCRFRNFSIQDSSRFVKKGDKGVDLVASLCKIYDASEDELRIVIDKANNLVETILKKKPSPASECQTDKLDNIDPDGLTYFEDLLEETSISTSLITLEKDYYDGKGELDERVFINEEDSLLGSGSLSAGAVNITGVKRKIDALSSPARTFISPLSPHKSPAAKTNGISGATKLAATPVSTAMTTAKWLRTVISPLLPKPSPGLEHFLKSCDRDITNDVTRRAHIILEAIFPNSSLGAQCGGGSLQAVDLMDDIWAEQRRLEACKLYYRVLEAMCKAEAQILHANNLNSLLTNERFHRCMLACSAELVLATHKTITMLFPAVLERTGITAFDLSKVIESFIRHEDSLPRELRRHLNSLEERLLESMVWEKGSSMYNSLIVARPSLALEINQLGLLAEPMPSLDAIAALINFSDGANHASSVQKHETCPGQNGGIRSPKRLCTDYRSILVERNSFTSPVKDRLLALGNVKSKMLPPPLQSAFASPTRPNPGGGGETCAETGINIFFTKINKLAAVRINGMVERLQLSQQIRESVYCFFQHVLAQRTSLLFSRHIDQIILCCFYGVAKISQMSLTFREIIYNYRKQPQCKPLVFRSVYVDALQCRRQGRIGPDHVDIITFYNEIFIPAVKPLLVELGPVRNDRAVEANNKPEGQCPGSPKVSVFPSVPDMSPKKVSAVHNVYVSPLRGSKMDALISHSTKSYYACVGESTHAYQSPSKDLSAINNRLNNSSSNRKRTLNFDAEAGMVSDSMVANSLNLQNQNQNQNGSDASSSGGAAPLKTEPTDS
In the case of B1, the binding entry was “no binding”.

The values are drawn from PMC2504488.
